Taken from: PubChem BioAssay AID504784 (Drosophila RNAi Screening Center, 2011)

- Assay: 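Genome-wide knock-down for genes giving too much or too little stored lipid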 (primary screen)
- Cells: Drosophila Kc167 embryonic cells
- Reagent: long dsRNA against Drosophila genes, about 250 ng dsRNA per well
- Time to read-out: 4 days
- Treatment: cells fed 400 µM oleic acid bound to BSA
- Detection: 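Microscope images give a droplet-to-nucleus area ratio, taken as log and converted to a screen-wide B-score; higher values mean greater lipid storage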
- Scale: droplet/nuclear area B-score: higher = more stored lipid (overstorage)
In all, the deposit lists about 17,000 reagents; shown is a random part of those with a known target gene and a result. 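Each column is one replicate's B-score; the combined score over replicates was not deposited, so single values may mislead.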 Names joined by + are all predicted targets of the reagent. Not all columns of the deposit are shown.

no.	target	DRSC id	droplet/nuclear area B-score, replicate 1
1	Pc (Polycomb)	DRSC11873	-1.52
2	Tap42 (Two A-associated protein of 42kDa)	DRSC02967	-1.42
3	CG12995	DRSC19515	0.0445
4	TM4SF (Transmembrane 4 superfamily)	DRSC04661	1.39
5	tex	DRSC16517	-0.852
6	CG31809	DRSC01561	0.835
7	CG18088	DRSC02654	0.00603
8	wap (wings apart)	DRSC20626	-0.0786
9	Gr8a (Gustatory receptor 8a)	DRSC18043	0.121
10	CG12910	DRSC06225	0.149
11	CG14014	DRSC02345	1.1
12	CG30089	DRSC06126	-0.0585
13	CG30089	DRSC06127	1.01
14	CG30089	DRSC06267	0.213
15	CG30089	DRSC06268	0.485
16	CG30089	DRSC21694	-3.41
17	CG8034	DRSC20076	0.00988
18	GramD1B (GRAM domain containing 1B)	DRSC00426	-0.372
19	GramD1B (GRAM domain containing 1B)	DRSC00591	-1.42
20	hrm (hermes)	DRSC04853	-0.223
21	CG11247	DRSC11643	0.531
22	CG11247	DRSC21901	0.023
23	Oli (Olig family)	DRSC02866	-0.59
24	mRpL3 (mitochondrial ribosomal protein L3)	DRSC20100	0.554
25	MED27 (Mediator complex subunit 27)	DRSC12205	0.583
26	stac (staccato)	DRSC13693	-0.744
27	stac (staccato)	DRSC14392	0.24
28	stac (staccato)	DRSC22197	-0.621
29	Ir76a (Ionotropic receptor 76a)	DRSC10987	0.378
30	Grx1t (Glutaredoxin 1, testis-specific)	DRSC04530	0.0309
31	RabGGTb (Rab geranylgeranyltransferase subunit beta)	DRSC00804	1.62
32	CG17198 + CG17197	DRSC15190	0.226
33	CG17198 + CG17197	DRSC15191	1.63
34	OS9 + Hf	DRSC03392	0.782
35	Ggt-1 (gamma-glutamyl transpeptidase)	DRSC19993	-0.309
36	CG31245	DRSC15498	0.0907
37	LRR (Leucine-rich repeat)	DRSC06444	-0.0138
38	CG34277 + CG31542	DRSC21544	-0.227
39	Best4 (Bestrophin 4)	DRSC10792	1.07
40	CG10565	DRSC11620	0.107
41	CG32235	DRSC23257	0.00886
42	Cog6 (Component of oligomeric golgi complex 6)	DRSC06806	0.0703
43	CG32750	DRSC18848	1.28
44	Mnt	DRSC17894	1.32
45	Mnt	DRSC18480	-3.25
46	CtsL1 (Cathepsin L1)	DRSC05462	1.24
47	CtsL1 (Cathepsin L1)	DRSC07363	-0.00606
48	CG5708	DRSC02881	0.023
49	LManV (Lysosomal alpha-mannosidase V)	DRSC03223	-1.3
50	bi (bifid)	DRSC18742	0.164
51	HSPBAP1 (HSPB1 associated protein 1)	DRSC14567	0.294

Quoted from the entries so far (12 entries):
no.	target	DRSC id	droplet/nuclear area B-score, replicate 1
32	CG17198 + CG17197	DRSC15190	0.226
33	CG17198 + CG17197	DRSC15191	1.63
34	OS9 + Hf	DRSC03392	0.782
35	Ggt-1 (gamma-glutamyl transpeptidase)	DRSC19993	-0.309
36	CG31245	DRSC15498	0.0907
37	LRR (Leucine-rich repeat)	DRSC06444	-0.0138
38	CG34277 + CG31542	DRSC21544	-0.227
39	Best4 (Bestrophin 4)	DRSC10792	1.07
40	CG10565	DRSC11620	0.107
41	CG32235	DRSC23257	0.00886
42	Cog6 (Component of oligomeric golgi complex 6)	DRSC06806	0.0703
43	CG32750	DRSC18848	1.28

The listing continues:
no.	target	DRSC id	droplet/nuclear area B-score, replicate 1
52	CG31007	DRSC14029	1.64
53	CG13481	DRSC10023	1.28
54	CG12519	DRSC10311	-0.187
55	CG12519	DRSC21549	-1.28
56	CG10553	DRSC14254	0.381
57	Pdk (Pyruvate dehydrogenase kinase)	DRSC07504	-0.198
58	CG34330	DRSC20043	0.111
59	CG5989	DRSC10565	0.0202
60	Spn53F (Serpin 53F)	DRSC06022	0.766
61	scpr-B (SCP-containing protein B)	DRSC15200	-2.91
62	CG17287	DRSC06659	-0.906
63	Pdxk (Pyridoxal kinase)	DRSC10419	0.368
64	CG7739	DRSC10910	0.189
65	CG11841	DRSC14399	-0.997
66	CG14377	DRSC14837	1.24
67	CG9389	DRSC11857	0.197
68	CG6688	DRSC16094	-1.55
69	side-VII (sidestep VII)	DRSC14578	-0.0335
70	CG8671	DRSC03102	0.65
71	CG8671	DRSC03103	0.562
72	ATP6AP2 (ATPase H+ transporting accessory protein 2)	DRSC16420	-1.1
73	DIP-eta (Dpr-interacting protein eta)	DRSC02342	0.812
74	CG8500	DRSC16434	1.04
75	galla-1	DRSC05987	-1.04
76	CG31249	DRSC16248	-1.92
77	CG14694	DRSC14917	-1.17
78	CG4972	DRSC02798	0.826
79	CG15221	DRSC19659	0.014
80	Tmtc4 (Transmembrane O-mannosyltransferase targeting cadherins 4)	DRSC15702	0.876
81	RhoGAP71E (Rho GTPase activating protein at 71E)	DRSC10232	0.184
82	RhoGAP71E (Rho GTPase activating protein at 71E)	DRSC10837	-1.32
83	RhoGAP71E (Rho GTPase activating protein at 71E)	DRSC10838	-0.908
